PubChem BioAssay AID1053208 – Peter MacCallum Cancer Centre | 2014

Screen: 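Synthetic lethal interactions between gene loss and doxorubicin in osteosarcoma cells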 (primary screen)
System: mouse osteosarcoma cells, early-passage culture from an engineered mouse model of fibroblastic bone tumour
Knock-down reagent: siRNA pool against mouse genes, 40 nM
Time to read-out: about 120 h (48 h before drug, then 72 h with drug)
Challenge: doxorubicin 100 nM for 72 h, roughly 30-40% inhibitory dose
Measured: 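Luminescent ATP signal taken as viability with or without 100 nM doxorubicin for 72 h; mean of two wells set against non-targeting siRNA and turned into robust z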
Scale: viability z-score with doxorubicin: higher = more viable cells under doxorubicin; viability z-score without drug: higher = more viable cells with knock-down alone
Call rule: 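Called active if knock-down leaves viability unchanged without drug (z within -2 to 2) but lowers it with doxorubicin (z at or under -2)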
Shown is an unselected part of about 17,000 deposited reagents. Over the whole deposit, 788 (4.7%) are marked active. 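Calls rest on z-score classes alone; an extra cut-off of viability at most 70% of control was not applied to them.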 Further read-outs or replicates are left out here.

gene knocked down,PubChem SID,combined z-score class,viability z-score with doxorubicin,viability z-score without drug,Call
Uchl3,SID152296442,no change with or without drug,0.67,0.67,inactive
Mettl9,SID152283086,no change with or without drug,1.01,-0.17,inactive
Ang,SID152315344,no change with or without drug,-0.45,-0.17,inactive
Rfesd,SID152269881,no change with or without drug,-0.45,1.01,inactive
Noc4l,SID152326632,no change with or without drug,0.11,1.18,inactive
Cdc25c,SID152285005,no change with or without drug,0.22,-0.17,inactive
Traf5,SID152291382,no change with or without drug,-0.67,0.17,inactive
St8sia2,SID152318720,no change with or without drug,-1.69,-1.01,inactive
Or4g7,SID152308021,no change with or without drug,0.67,-1.18,inactive
A930017M01Rik,SID152280544,no change with or without drug,-0.67,-0.51,inactive
Cdc42ep1,SID152338697,low cell count with doxorubicin only,-2.7,-1.52,active
Slc66a1,SID152313957,no change with or without drug,0.34,-0.17,inactive
Mtnr1b,SID152334892,no change with or without drug,0.22,0.67,inactive
Il15ra,SID152268677,no change with or without drug,-0.22,1.85,inactive
Gpr68,SID152292886,no change with or without drug,-1.12,-0.51,inactive
Cetn3,SID152304841,no change with or without drug,-0.56,-1.35,inactive
Chst1,SID152272003,no change with or without drug,-0.56,0.17,inactive
Prg3,SID152269025,no change with or without drug,1.57,1.01,inactive
Pcdhgb2,SID152272158,low cell count with doxorubicin only,-2.92,-1.18,active
Aifm3,SID152306805,no change with or without drug,0.34,1.18,inactive
Rabep1,SID152333069,no change with or without drug,-0.11,0.51,inactive
Or6c75,SID152300438,no change with or without drug,-1.12,-1.85,inactive
N4bp2l2,SID152314604,no change with or without drug,1.46,0.17,inactive
Fam180a,SID152326807,no change with or without drug,-0.67,0.67,inactive
Kat2a,SID152340443,no change with or without drug,-0.45,-1.18,inactive
Krabd3,SID152307541,no change with or without drug,0.22,0.34,inactive
Slc1a7,SID152290851,no change with or without drug,-1.69,-0.17,inactive
Tubb3,SID152286022,no change with or without drug,0.67,0,inactive
Tarm1,SID152287955,no change with or without drug,-0.22,0.51,inactive
Arhgef11,SID152277303,no change with or without drug,-1.35,0.84,inactive
Or2ag19,SID152334801,no change with or without drug,-1.69,-1.01,inactive
Tas2r113,SID152323268,no change with or without drug,0.9,-0.84,inactive
Mettl13,SID152297579,no change with or without drug,0,0.51,inactive
H2-Ab1,SID152262972,low cell count with doxorubicin only,-2.02,-1.18,active
H2-Ab1,SID152285137,no change with or without drug,0.9,1.52,inactive

Entries listed above marked active:
gene knocked down,PubChem SID,combined z-score class,viability z-score with doxorubicin,viability z-score without drug,Call
Cdc42ep1,SID152338697,low cell count with doxorubicin only,-2.7,-1.52,active
Pcdhgb2,SID152272158,low cell count with doxorubicin only,-2.92,-1.18,active
H2-Ab1,SID152262972,low cell count with doxorubicin only,-2.02,-1.18,active
